# Some of the results follow.
# By UniProt entry, the sequences of proteins in these tests, tags left out. Where a name states a change or a piece, a line headed by the entry shows the natural chain unless it says otherwise.
# UniProt Q96Q11: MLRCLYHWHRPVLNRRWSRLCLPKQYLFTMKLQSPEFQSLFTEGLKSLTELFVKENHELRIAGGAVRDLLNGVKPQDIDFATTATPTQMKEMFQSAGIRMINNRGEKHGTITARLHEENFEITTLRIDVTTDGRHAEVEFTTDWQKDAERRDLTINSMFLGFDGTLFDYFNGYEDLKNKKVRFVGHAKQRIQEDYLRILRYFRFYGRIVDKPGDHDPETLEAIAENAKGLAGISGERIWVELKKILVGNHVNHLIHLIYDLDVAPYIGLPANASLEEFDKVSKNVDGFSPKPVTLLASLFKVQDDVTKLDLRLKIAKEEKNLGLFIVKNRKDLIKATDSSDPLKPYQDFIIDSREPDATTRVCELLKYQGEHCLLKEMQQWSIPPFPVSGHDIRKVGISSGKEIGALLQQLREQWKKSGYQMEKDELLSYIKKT
# UniProt P09493, whole entry, looked up: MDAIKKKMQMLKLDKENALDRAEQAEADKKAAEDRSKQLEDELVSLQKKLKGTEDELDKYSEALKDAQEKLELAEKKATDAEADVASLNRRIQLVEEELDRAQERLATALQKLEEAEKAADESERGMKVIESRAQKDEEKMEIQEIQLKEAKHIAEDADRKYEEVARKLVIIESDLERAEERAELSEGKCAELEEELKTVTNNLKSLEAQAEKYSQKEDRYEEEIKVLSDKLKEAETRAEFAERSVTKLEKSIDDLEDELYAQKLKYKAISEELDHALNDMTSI
# UniProt Q15785: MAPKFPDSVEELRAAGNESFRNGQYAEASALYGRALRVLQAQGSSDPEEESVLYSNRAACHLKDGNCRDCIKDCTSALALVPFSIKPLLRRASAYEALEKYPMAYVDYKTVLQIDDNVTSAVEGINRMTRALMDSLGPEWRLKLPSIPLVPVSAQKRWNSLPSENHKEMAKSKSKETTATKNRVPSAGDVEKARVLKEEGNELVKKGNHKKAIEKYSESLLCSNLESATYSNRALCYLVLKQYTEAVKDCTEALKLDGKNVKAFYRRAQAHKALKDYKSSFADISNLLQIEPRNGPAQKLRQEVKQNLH
# UniProt P07951, whole entry, looked up: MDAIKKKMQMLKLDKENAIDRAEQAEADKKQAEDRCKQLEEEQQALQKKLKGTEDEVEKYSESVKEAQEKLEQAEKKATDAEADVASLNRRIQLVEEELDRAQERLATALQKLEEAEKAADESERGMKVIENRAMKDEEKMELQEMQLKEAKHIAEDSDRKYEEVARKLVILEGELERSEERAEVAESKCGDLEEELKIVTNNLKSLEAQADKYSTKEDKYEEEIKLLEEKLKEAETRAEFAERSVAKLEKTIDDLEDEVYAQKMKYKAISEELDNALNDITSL
# UniProt Q7Z392: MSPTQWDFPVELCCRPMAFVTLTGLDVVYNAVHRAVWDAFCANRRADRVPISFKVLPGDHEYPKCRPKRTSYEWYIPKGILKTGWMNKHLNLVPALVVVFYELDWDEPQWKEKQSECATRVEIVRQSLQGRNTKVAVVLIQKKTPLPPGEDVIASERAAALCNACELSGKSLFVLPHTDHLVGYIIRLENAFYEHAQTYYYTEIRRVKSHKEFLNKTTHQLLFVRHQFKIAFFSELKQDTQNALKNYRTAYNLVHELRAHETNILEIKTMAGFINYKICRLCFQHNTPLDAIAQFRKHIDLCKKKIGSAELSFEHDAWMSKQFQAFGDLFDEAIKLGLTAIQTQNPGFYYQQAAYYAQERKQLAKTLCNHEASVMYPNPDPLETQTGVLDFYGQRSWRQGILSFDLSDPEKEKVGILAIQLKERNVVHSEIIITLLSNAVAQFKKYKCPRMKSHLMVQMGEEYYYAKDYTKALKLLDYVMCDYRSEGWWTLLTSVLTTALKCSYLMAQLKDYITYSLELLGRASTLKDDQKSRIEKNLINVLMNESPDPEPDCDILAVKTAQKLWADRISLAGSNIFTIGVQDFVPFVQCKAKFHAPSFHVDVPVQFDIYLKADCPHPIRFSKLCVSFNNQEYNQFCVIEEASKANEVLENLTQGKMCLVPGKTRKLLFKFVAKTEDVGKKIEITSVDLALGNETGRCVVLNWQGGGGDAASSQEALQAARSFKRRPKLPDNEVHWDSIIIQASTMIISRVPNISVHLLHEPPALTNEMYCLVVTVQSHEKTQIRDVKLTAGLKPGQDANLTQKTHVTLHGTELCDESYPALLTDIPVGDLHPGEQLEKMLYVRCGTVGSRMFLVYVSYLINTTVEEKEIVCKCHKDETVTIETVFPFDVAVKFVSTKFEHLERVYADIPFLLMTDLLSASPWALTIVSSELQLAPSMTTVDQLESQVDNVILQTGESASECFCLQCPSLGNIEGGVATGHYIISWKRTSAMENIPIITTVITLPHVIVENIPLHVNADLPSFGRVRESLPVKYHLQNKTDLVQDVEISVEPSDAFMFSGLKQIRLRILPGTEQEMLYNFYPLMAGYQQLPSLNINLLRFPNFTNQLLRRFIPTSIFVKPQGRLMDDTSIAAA
# UniProt Q969M1: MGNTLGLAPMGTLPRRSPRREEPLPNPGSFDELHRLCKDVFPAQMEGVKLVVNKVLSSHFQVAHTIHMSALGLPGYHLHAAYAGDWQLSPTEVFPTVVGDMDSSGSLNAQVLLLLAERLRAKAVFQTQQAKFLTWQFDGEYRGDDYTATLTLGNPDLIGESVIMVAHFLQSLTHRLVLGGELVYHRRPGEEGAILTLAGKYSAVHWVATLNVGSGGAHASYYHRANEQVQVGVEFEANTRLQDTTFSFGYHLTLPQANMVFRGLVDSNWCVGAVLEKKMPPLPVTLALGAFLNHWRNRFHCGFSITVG
# UniProt P11388: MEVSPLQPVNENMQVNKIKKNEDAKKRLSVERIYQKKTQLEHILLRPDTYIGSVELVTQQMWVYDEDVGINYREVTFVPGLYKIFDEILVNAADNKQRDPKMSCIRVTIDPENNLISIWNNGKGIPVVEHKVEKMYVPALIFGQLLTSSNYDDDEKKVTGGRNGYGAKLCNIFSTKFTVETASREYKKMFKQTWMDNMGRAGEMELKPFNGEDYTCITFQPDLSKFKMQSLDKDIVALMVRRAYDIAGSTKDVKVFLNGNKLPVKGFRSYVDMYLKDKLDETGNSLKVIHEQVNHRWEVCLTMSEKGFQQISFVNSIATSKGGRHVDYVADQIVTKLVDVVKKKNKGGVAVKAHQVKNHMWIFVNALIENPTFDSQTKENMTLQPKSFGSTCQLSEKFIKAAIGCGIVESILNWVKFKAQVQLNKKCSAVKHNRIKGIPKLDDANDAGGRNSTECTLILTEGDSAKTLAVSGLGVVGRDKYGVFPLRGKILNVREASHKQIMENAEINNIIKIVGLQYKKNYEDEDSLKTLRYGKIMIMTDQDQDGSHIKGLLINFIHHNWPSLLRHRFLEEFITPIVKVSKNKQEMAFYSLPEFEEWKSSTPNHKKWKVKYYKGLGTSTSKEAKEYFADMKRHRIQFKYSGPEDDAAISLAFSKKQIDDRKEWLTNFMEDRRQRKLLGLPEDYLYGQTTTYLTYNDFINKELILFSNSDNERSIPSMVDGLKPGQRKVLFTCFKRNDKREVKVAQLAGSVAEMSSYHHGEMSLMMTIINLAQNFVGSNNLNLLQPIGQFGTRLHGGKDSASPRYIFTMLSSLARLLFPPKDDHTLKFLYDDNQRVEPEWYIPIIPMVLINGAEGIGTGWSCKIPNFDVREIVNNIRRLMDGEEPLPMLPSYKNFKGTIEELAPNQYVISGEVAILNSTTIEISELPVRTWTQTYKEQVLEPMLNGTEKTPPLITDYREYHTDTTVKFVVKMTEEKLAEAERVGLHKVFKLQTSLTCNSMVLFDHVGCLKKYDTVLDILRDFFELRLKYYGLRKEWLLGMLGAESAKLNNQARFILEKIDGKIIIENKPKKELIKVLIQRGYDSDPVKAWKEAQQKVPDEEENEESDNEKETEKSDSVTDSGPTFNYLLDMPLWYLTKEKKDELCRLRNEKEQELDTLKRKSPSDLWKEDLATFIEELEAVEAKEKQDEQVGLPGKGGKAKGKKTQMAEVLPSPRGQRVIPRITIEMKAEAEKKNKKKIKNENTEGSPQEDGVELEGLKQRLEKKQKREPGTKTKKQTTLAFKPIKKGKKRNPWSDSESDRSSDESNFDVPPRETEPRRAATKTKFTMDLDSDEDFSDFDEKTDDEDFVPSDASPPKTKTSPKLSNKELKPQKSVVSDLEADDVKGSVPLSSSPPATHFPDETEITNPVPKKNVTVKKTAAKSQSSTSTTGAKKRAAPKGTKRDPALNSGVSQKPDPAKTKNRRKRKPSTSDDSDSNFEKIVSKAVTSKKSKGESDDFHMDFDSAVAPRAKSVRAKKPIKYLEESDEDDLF
# UniProt Q8WW01: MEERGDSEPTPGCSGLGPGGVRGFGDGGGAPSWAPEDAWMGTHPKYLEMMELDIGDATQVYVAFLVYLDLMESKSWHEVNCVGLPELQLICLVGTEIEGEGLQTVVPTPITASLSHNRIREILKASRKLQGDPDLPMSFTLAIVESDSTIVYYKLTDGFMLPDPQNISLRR
# UniProt Q15388, whole entry, looked up: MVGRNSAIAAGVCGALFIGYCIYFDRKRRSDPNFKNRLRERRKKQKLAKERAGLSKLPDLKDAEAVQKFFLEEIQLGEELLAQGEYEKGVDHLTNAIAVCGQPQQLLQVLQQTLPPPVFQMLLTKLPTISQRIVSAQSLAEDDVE
# UniProt Q9Y3Q8: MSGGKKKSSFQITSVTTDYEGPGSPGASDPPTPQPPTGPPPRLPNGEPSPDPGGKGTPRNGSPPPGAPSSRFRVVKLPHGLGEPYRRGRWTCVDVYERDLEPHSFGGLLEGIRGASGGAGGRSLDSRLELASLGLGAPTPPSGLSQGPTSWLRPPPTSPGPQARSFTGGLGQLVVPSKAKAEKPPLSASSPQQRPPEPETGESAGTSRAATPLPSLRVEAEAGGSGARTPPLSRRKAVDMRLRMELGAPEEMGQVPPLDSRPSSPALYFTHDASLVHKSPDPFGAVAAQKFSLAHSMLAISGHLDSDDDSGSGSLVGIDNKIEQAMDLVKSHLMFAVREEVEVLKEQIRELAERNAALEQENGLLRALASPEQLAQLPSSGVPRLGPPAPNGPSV
# UniProt O95985: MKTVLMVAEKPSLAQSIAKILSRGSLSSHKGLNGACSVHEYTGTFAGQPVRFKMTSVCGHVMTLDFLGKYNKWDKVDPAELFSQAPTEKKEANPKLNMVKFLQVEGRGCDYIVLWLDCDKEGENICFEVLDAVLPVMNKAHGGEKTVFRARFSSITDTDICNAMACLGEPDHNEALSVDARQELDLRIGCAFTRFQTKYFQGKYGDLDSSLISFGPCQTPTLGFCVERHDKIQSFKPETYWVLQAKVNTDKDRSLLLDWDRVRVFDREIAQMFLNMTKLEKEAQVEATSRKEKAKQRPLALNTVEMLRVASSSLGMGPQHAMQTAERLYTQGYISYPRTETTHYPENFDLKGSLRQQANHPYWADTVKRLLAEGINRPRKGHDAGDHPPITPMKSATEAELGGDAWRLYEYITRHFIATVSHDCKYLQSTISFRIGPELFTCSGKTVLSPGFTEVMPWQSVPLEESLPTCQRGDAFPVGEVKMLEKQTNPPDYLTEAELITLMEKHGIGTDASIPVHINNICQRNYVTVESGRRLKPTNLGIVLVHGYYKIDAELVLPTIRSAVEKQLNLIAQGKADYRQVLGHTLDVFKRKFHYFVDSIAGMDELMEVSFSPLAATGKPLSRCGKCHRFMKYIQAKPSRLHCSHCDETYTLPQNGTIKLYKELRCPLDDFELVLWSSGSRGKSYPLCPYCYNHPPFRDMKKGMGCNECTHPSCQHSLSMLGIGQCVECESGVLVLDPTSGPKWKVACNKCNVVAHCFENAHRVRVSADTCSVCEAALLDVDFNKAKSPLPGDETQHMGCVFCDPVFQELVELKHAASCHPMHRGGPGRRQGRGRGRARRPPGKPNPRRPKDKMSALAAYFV
# UniProt Q5JU69: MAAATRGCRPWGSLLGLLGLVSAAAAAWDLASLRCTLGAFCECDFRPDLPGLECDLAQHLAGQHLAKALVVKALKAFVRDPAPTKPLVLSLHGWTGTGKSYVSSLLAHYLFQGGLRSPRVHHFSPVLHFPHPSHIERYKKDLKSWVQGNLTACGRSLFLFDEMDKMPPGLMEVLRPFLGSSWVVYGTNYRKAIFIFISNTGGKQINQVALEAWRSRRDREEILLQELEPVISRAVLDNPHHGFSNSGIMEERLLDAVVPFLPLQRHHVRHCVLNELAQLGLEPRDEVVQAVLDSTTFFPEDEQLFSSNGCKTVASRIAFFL
# UniProt O43715: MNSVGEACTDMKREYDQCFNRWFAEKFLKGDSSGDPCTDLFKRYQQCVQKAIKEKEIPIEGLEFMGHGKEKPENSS
# UniProt Q53FA7: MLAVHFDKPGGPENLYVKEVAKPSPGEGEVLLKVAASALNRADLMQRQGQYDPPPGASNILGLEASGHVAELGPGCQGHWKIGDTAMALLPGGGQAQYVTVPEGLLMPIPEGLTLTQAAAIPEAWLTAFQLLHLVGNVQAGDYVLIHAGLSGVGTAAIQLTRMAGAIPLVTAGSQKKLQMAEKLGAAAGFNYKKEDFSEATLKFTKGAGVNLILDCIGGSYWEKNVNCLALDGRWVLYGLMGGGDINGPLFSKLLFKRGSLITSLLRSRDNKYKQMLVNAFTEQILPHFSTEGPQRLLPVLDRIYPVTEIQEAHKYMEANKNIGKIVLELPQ
# Compound: CC1=C(C=C(C=C1)NC(=O)C2=CC(=CC=C2)C(C)(C)C#N)NC3=CC4=C(C=C3)N=CN(C4=O)C
# Assay: log2 fold change, soluble protein after heating vs DMSO (PISA); higher = thermal stabilisation; K562 cells, 10 uM, 30 min; active = over 0.2 and 3.5 SD of the protein, either way, in both replicates (recomputed)
# In short: (§1)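 Thermal stability values are relative to control samples and come from duplicates. They are expressed as log2 fold changes. For measurement, K562 cells (2×10^6 cells/mL) received 10 μM compound for 30 min, and aliquots were heated for 3 min over 48°C-58°C, pooled, and extracted at 4°C in PBS with 0.5% NP-40. Soluble protein, the supernatant after 21,000xg for 90 min, was quantified by TMTpro 16plex LC-MS/MS with equalised channel sums.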
row,Target,log2 fold change
1,TPP2 (UniProt Q5VZU9),inactive: 0.027
2,TRNT1 (UniProt Q96Q11),inactive: -0.056
3,TPM1 isoform 4 (UniProt P09493),inactive: 0.035
4,TOMM34 (UniProt Q15785),inactive: 0.008
5,TPM2 (UniProt P07951),inactive: 0.048
6,TRAPPC11 (UniProt Q7Z392),inactive: 0.098
7,TOMM40L (UniProt Q969M1),inactive: 0.023
8,TOP2A isoform 4 (UniProt P11388),inactive: 0.081
9,TPM1 (UniProt H7BYY1),inactive: -0.038
10,TSEN15 (UniProt Q8WW01),inactive: 0.08

# Compound: CC1=C(C=C(C=C1)NC(=O)C2=CC(=CC=C2)N(C)C)NC(=O)C3=CC=C(C=C3)O
# Assay: as above
# In short: as §1
row,Target,log2 fold change
1,TOMM20 (UniProt Q15388),inactive: 0.044
2,TSEN34 (UniProt Q9BSV6),inactive: 0.027
3,TSC22D4 (UniProt Q9Y3Q8),inactive: 0
4,TOP1 (UniProt P11387),inactive: -0.083
5,TRIP13 (UniProt Q15645),inactive: 0.008
6,TOP3B (UniProt O95985),inactive: -0.031
7,TRIM4 (UniProt Q9C037),inactive: 0.023
8,TPM3 isoform 4 (UniProt P06753),inactive: -0.002
9,TPP2 (UniProt P29144),inactive: -0.06
10,TOMM40 (UniProt O96008),inactive: 0.028
11,TRAPPC8 (UniProt Q9Y2L5),inactive: -0.036
12,TOR2A (UniProt Q5JU69),inactive: 0.02
13,TRIAP1 (UniProt O43715),inactive: -0.135
14,TRIP11 (UniProt Q15643),inactive: 0.038
15,TRIP6 (UniProt Q15654),inactive: -0.02
16,TP53RK (UniProt Q96S44),inactive: 0.008
17,TOR1AIP2 (UniProt Q8NFQ8),inactive: 0

row,Target,log2 fold change
1,TOE1 (UniProt Q96GM8),inactive: 0.056
2,"TPM4, A0A2R8Y5V9",inactive: 0.038
3,TRIM11 (UniProt Q96F44),inactive: -0.04
4,TRMT6 (UniProt Q9UJA5),inactive: 0.036
5,TOM1 isoform 2 (UniProt O60784),inactive: 0.026
6,TP53I3 (UniProt Q53FA7),inactive: 0.019
7,TPP2 (UniProt Q5VZU9),inactive: -0.163
8,TRNT1 (UniProt Q96Q11),inactive: -0.003
9,TPM1 isoform 4 (UniProt P09493),inactive: -0.013
10,TOMM34 (UniProt Q15785),inactive: 0.009
11,TPM2 (UniProt P07951),inactive: -0.019
12,TRAPPC11 (UniProt Q7Z392),inactive: 0.01
13,TOMM40L (UniProt Q969M1),inactive: 0.037
14,TOP2A isoform 4 (UniProt P11388),inactive: -0.006
15,TPM1 (UniProt H7BYY1),inactive: 0.021
16,TSEN15 (UniProt Q8WW01),inactive: -0.008

# Compound: CC1=CC=C(C=C1)SC2=C3C=C(SC3=CN=C2)C(=O)N
# Assay: as above
# In short: as §1
row,Target,log2 fold change
1,TOMM20 (UniProt Q15388),inactive: 0.04
2,TSEN34 (UniProt Q9BSV6),inactive: -0.015
3,TSC22D4 (UniProt Q9Y3Q8),inactive: -0.027
4,TOP1 (UniProt P11387),inactive: -0.033
5,TRIP13 (UniProt Q15645),inactive: 0.049
6,TOP3B (UniProt O95985),inactive: -0.015
7,TRIM4 (UniProt Q9C037),inactive: -0.029
8,TPM3 isoform 4 (UniProt P06753),inactive: -0.009
9,TPP2 (UniProt P29144),inactive: 0.026
10,TOMM40 (UniProt O96008),inactive: 0.006
11,TRAPPC8 (UniProt Q9Y2L5),inactive: -0.009
12,TOR2A (UniProt Q5JU69),inactive: -0.012
13,TRIAP1 (UniProt O43715),inactive: 0.444
14,TRIP11 (UniProt Q15643),inactive: 0.09
15,TRIP6 (UniProt Q15654),inactive: 0
16,TP53RK (UniProt Q96S44),inactive: 0.01
17,TOR1AIP2 (UniProt Q8NFQ8),inactive: -0.047

row,Target,log2 fold change
1,TOE1 (UniProt Q96GM8),inactive: -0.012
2,"TPM4, A0A2R8Y5V9",inactive: -0.076
3,TRIM11 (UniProt Q96F44),inactive: 0.064
4,TRMT6 (UniProt Q9UJA5),inactive: 0
5,TOM1 isoform 2 (UniProt O60784),inactive: 0.02
6,TP53I3 (UniProt Q53FA7),inactive: -0.017
7,TPP2 (UniProt Q5VZU9),inactive: -0.118
8,TRNT1 (UniProt Q96Q11),inactive: -0.007
9,TPM1 isoform 4 (UniProt P09493),inactive: -0.001
10,TOMM34 (UniProt Q15785),inactive: 0.033
11,TPM2 (UniProt P07951),inactive: -0.047
12,TRAPPC11 (UniProt Q7Z392),inactive: -0.014
13,TOMM40L (UniProt Q969M1),inactive: -0.013
14,TOP2A isoform 4 (UniProt P11388),inactive: -0.083
15,TPM1 (UniProt H7BYY1),inactive: -0.035
16,TSEN15 (UniProt Q8WW01),inactive: 0.018
